Experimental data: PubChem BioAssay AID1259405 (NCATS, 2018)
In all, the deposit lists about 50,000 reagents; this is a part drawn at random. Over the whole deposit, about 4,000 (8%) got an active call. 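Mouse siRNA library applied to hamster cells; one well for each siRNA.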 The numbers tell different reagents against one gene apart.

Purpose: 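Silenced genes that increase secreted GFP made by CHO cells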 (primary screen)
Cells: Chinese hamster CHO-K1 ovary cells with stable secreted eGFP expression
Reagent: single siRNA against mouse genes, 0.8 pmol siRNA per well (2 µl of 400 nM stock)
Duration: 3 days
Measurement: 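Percent of the per-plate non-targeting control median for intracellular GFP per well by laser scanning cytometry and for cell viability by ATP luminescence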
Scale: GFP, % of control: higher = more GFP per well, higher productivity; viability (ATP), % of control: higher = more viable cells (more ATP)
Hit rule: 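a knock-down is called active if GFP reaches 120% or more of non-targeting control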

| gene symbol | reagent no. | GFP, % of control | viability (ATP), % of control | call |
| --- | --- | --- | --- | --- |
| Siglece | 1 | 73.5 | 59.9 | inactive |
| Siglece | 2 | 106 | 94 | inactive |
| Or5l14 | 1 | 91.9 | 71.1 | inactive |
| Or5l14 | 2 | 53.8 | 78.1 | inactive |
| Or5l14 | 3 | 84.3 | 69.1 | inactive |
| Ell2 | 1 | 72.5 | 68 | inactive |
| Ell2 | 2 | 110 | 123 | inactive |
| Utf1 | 1 | 63.1 | 40.3 | inactive |
| Utf1 | 2 | 77.8 | 74.3 | inactive |
| Utf1 | 3 | 57.4 | 82.5 | inactive |
| Wdfy1 | 1 | 85.3 | 80.6 | inactive |
| Wdfy1 | 2 | 77.7 | 70.8 | inactive |
| Wdfy1 | 3 | 52.7 | 53.9 | inactive |
| Tial1 | 1 | 121 | 87.6 | active |
| Tial1 | 2 | 134 | 67.2 | active |
| Tial1 | 3 | 96.4 | 92.8 | inactive |
| Dpp9 | 1 | 65.4 | 98.6 | inactive |
| Dpp9 | 2 | 188 | 66.2 | active |
| Dpp9 | 3 | 77.3 | 76.7 | inactive |
| Snx4 | 1 | 66.4 | 95.2 | inactive |
| Snx4 | 2 | 84.1 | 83.4 | inactive |
| Kif26b | 1 | 71 | 68.2 | inactive |
| Kif26b | 2 | 88.4 | 73.2 | inactive |
| Kif26b | 3 | 104 | 82.7 | inactive |
| Kif26b | 4 | 64.5 | 66.9 | inactive |
| Kif26b | 5 | 60.9 | 87.2 | inactive |
| Kif26b | 6 | 136 | 50.7 | active |
| Etl4 | 1 | 30.2 | 40.7 | inactive |
| Etl4 | 2 | 33.4 | 48.4 | inactive |
| Etl4 | 3 | 79 | 69.9 | inactive |
| Nrip3 | 1 | 94.9 | 96.4 | inactive |
| Nrip3 | 2 | 66.9 | 79.3 | inactive |
| Nrip3 | 3 | 88.9 | 96.9 | inactive |
| Coro2b | 1 | 106 | 90.5 | inactive |
| Coro2b | 2 | 78.1 | 82.9 | inactive |
| Coro2b | 3 | 108 | 89.8 | inactive |
| Psmd1 | 1 | 6.37 | 5.23 | inactive |
| Psmd1 | 2 | 6.81 | 2.11 | inactive |
| Psmd1 | 3 | 19.5 | 26.4 | inactive |
| Igbp1b | 1 | 67.8 | 89 | inactive |
| Igbp1b | 2 | 76.3 | 48.7 | inactive |
| Igbp1b | 3 | 116 | 41.4 | inactive |

Individual results from the list:
Entry of Wdfy1 #2 in “viability (ATP), % of control”: 70.8
Result of Psmd1 #1 in “call”: inactive
Wdfy1 #1, call: inactive
Entry for Siglece #1 in “viability (ATP), % of control”: 59.9
Or5l14 #3, viability (ATP), % of control: 69.1
For “viability (ATP), % of control”, Coro2b #3 has 89.8

Further entries follow:
| gene symbol | reagent no. | GFP, % of control | viability (ATP), % of control | call |
| --- | --- | --- | --- | --- |
| Lypd6 | 1 | 51.6 | 71.5 | inactive |
| Lypd6 | 2 | 137 | 68.7 | active |
| Lypd6 | 3 | 79.3 | 84.6 | inactive |
| Atp6v1g3 | 1 | 63.3 | 103 | inactive |
| Atp6v1g3 | 2 | 54.6 | 93 | inactive |
| Atp6v1g3 | 3 | 43.6 | 72 | inactive |
| Or4c11c | 1 | 53.7 | 67.9 | inactive |
| Or4c11c | 2 | 79.9 | 73.3 | inactive |
| Or4c11c | 3 | 55.4 | 73.2 | inactive |
| Gimap4 | 1 | 49.9 | 74 | inactive |
| Gimap4 | 2 | 70.4 | 77.7 | inactive |
| Gimap4 | 3 | 90.3 | 93.4 | inactive |
| Bcl11a | 1 | 54.5 | 62.8 | inactive |
| Bcl11a | 2 | 94.5 | 77.6 | inactive |
| Bcl11a | 3 | 68 | 99 | inactive |
| Cyp4f39 | 1 | 54.1 | 65.8 | inactive |
| Cyp4f39 | 2 | 68.1 | 74.1 | inactive |
| Cyp4f39 | 3 | 74.8 | 83.6 | inactive |
| Usp48 | 1 | 57.2 | 38.6 | inactive |
| Usp48 | 2 | 110 | 80.4 | inactive |
| Usp48 | 3 | 102 | 93.2 | inactive |
| Cycs | 1 | 104 | 90.1 | inactive |
| Cycs | 2 | 93.4 | 80 | inactive |
| Cycs | 3 | 66.5 | 74.7 | inactive |
| Hmgxb4 | 1 | 79 | 86 | inactive |
| Hmgxb4 | 2 | 111 | 76.7 | inactive |
| Hmgxb4 | 3 | 106 | 97.5 | inactive |
| Or5p72 | 1 | 96.3 | 67.8 | inactive |
| Or5p72 | 2 | 88.5 | 94.1 | inactive |
| Or5p72 | 3 | 82.1 | 50.5 | inactive |
| C3ar1 | 1 | 95.6 | 75.4 | inactive |
| C3ar1 | 2 | 88.1 | 82.2 | inactive |
| C3ar1 | 3 | 70 | 59.7 | inactive |
| Lysmd4 | 1 | 30.2 | 38.8 | inactive |
| Lysmd4 | 2 | 49.5 | 64 | inactive |
| Lysmd4 | 3 | 63.4 | 96.3 | inactive |
| Lrrc47 | 1 | 53.6 | 53.4 | inactive |
| Lrrc47 | 2 | 67 | 99.2 | inactive |
| Lrrc47 | 3 | 58.1 | 63.8 | inactive |
| Gria3 | 1 | 59 | 62.6 | inactive |
| Gria3 | 2 | 83.3 | 82.2 | inactive |
| Gria3 | 3 | 76.7 | 92.6 | inactive |
